Measurements: patent publication US20080226644A1
No constants are given. Whether binding was seen depends on the method and setting. Some results given as binding are weak or reduced against the parent protein; the word gives no strength.

The chains behind the UniProt entries cited, without tags or fusion partners. Where a name states a change or a piece, a line headed by the entry shows the natural chain unless it says otherwise. Residues count along the entry.
UniProt P35221, residues 2-906: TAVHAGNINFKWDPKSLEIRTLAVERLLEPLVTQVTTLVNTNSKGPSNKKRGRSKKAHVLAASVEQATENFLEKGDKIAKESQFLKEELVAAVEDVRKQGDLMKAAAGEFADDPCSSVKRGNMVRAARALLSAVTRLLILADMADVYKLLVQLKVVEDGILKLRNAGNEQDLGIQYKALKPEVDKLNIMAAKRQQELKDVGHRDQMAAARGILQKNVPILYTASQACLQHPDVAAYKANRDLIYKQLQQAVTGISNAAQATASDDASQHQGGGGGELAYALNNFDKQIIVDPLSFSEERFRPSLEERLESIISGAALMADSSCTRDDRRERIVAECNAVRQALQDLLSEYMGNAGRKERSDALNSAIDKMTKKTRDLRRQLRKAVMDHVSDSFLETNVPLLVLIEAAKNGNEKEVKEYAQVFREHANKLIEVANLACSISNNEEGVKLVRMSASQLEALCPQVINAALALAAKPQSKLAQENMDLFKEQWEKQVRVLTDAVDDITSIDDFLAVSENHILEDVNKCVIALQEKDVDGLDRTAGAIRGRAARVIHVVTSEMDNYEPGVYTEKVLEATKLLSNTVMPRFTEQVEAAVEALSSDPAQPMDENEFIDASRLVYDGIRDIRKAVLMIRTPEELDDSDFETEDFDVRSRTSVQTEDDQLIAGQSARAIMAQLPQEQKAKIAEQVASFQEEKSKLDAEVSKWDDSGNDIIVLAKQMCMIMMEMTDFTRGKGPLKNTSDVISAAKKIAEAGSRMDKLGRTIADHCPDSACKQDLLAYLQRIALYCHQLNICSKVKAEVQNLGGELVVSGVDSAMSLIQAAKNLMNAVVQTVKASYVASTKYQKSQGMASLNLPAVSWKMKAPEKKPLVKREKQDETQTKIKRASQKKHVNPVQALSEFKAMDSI
UniProt Q96KN1: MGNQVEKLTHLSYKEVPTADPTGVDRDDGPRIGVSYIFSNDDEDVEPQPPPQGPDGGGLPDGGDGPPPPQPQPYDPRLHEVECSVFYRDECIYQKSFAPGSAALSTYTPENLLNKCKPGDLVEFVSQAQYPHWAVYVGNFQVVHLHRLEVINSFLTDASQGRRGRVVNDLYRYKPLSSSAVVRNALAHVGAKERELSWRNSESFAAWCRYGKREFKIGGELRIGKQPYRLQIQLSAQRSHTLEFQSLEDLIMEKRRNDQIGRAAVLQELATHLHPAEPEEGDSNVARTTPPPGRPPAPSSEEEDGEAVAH

Molecular target: alpha-1 catenin (UniProt P35221)
Assay: yeast two-hybrid, BCMP 101 as bait, cDNA library as prey

With BCMP 101 (from UniProt Q96KN1 1-310) the binding was “binds”.
